{"sequences": {"note": "Sequences of proteins named here, by UniProt entry; tags and fusion partners are left off. A change or cut given only in a name is not applied to a line headed by its entry.", "UniProt Q99607": "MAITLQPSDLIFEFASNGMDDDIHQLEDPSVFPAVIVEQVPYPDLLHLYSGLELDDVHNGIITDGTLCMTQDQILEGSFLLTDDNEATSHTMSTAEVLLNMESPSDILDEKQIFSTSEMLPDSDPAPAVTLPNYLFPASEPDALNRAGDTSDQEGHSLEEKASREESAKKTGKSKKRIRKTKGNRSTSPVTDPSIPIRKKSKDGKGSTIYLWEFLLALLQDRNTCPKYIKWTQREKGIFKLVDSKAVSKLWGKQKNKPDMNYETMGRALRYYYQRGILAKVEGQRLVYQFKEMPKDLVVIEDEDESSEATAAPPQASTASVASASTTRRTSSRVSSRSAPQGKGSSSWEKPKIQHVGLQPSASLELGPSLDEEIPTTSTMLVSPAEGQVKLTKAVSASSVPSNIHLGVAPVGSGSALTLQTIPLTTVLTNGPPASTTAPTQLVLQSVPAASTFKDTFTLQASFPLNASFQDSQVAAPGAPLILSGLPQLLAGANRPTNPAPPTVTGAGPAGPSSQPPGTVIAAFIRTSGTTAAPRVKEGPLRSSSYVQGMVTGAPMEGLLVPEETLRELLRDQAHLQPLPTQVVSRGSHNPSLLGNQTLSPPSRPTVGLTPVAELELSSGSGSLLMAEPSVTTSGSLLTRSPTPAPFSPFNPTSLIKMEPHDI"}, "source": "paper PMC7862700", "note": "This is a selection; strong and weak results do not stand in their true shares. For part of these data: At the low end of the ranking the order means little."}
{"biological_target": "ELF4 (UniProt Q99607)", "assay": "DAPPL (digital affinity profiling via proximity ligation, sequencing)", "conditions": "10 mM Tris-HCl pH 7.5, 50 mM NaCl, 1 mM DTT, 4% glycerol, room temperature, 30 min; GST-TFs on glutathione beads, 16-mer random dsDNA library, 0.1% …; high values mean tight binding; double strand, one strand shown; scale: fold enrichment (6-mer frequency, TF over GST control)"}
{"sequence": "GCTTTC", "binding signal": 1.23}
{"sequence": "ATTATG", "binding signal": 1.22}
{"sequence": "TCTTGT", "binding signal": 1.66}
{"sequence": "GATGAT", "binding signal": 1.32}
{"sequence": "TAAACA", "binding signal": 1.26}
{"sequence": "ACTGGC", "binding signal": 1.16}
{"sequence": "TAAATA", "binding signal": 1.26}
{"sequence": "CGCCTT", "binding signal": 1.54}
{"sequence": "CCATTG", "binding signal": 1.17}
{"sequence": "TTGGTG", "binding signal": 1.3}
{"sequence": "CACTAA", "binding signal": 1.2}
{"sequence": "CTCCGG", "binding signal": 1.56}
{"sequence": "TAATCT", "binding signal": 1.51}
{"sequence": "ATATAC", "binding signal": 1.13}
{"sequence": "CTGATA", "binding signal": 1.19}
{"sequence": "TACTAG", "binding signal": 0.986}
{"sequence": "TCGATT", "binding signal": 1.19}
{"sequence": "CTCTGT", "binding signal": 1.33}
{"sequence": "TCCCAC", "binding signal": 1.34}
{"sequence": "CCTGTT", "binding signal": 1.72}
{"sequence": "TCTCGA", "binding signal": 1.51}
{"sequence": "TTAAAG", "binding signal": 1.15}
{"sequence": "ATACTA", "binding signal": 1.19}
{"sequence": "AATGAT", "binding signal": 1.17}
{"sequence": "TGCGAT", "binding signal": 1.2}
{"sequence": "ATCCCC", "binding signal": 1.37}
{"sequence": "GCTCTG", "binding signal": 1.17}
{"sequence": "TCGCGC", "binding signal": 0.994}
{"sequence": "CTGTTA", "binding signal": 1.37}
{"sequence": "TTTGAA", "binding signal": 1.32}
{"sequence": "TAATGT", "binding signal": 1.11}
{"sequence": "TTCTCG", "binding signal": 1.51}
{"sequence": "CATCCC", "binding signal": 1.22}
{"sequence": "CATATA", "binding signal": 1.11}
{"sequence": "TTACTC", "binding signal": 1.29}
{"sequence": "TATAGT", "binding signal": 1.03}
{"sequence": "ACCTCG", "binding signal": 1.18}
{"sequence": "TTTTCA", "binding signal": 1.27}
{"biological_target": "T1, ETV2 (UniProt O00321)", "T1 sequence": "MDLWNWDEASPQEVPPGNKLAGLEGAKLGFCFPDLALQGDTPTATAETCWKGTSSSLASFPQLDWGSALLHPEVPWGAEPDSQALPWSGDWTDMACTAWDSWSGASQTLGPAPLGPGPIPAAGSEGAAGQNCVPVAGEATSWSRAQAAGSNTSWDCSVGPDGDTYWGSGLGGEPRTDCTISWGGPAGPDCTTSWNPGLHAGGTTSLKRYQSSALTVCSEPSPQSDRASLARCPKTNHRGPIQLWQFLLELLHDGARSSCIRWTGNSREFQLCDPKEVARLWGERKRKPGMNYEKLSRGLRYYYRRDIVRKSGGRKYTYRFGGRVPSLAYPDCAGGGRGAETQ", "assay": "DAPPL (digital affinity profiling via proximity ligation, sequencing)", "conditions": "10 mM Tris-HCl pH 7.5, 50 mM NaCl, 1 mM DTT, 4% glycerol, room temperature, 30 min; GST-TFs on glutathione beads, 16-mer random dsDNA library, 0.1% …; high values mean tight binding; double strand, one strand shown; scale: fold enrichment (6-mer frequency, TF over GST control)"}
{"sequence": "ATTATG", "binding signal": 1.03}
{"sequence": "GATGAT", "binding signal": 1.33}
{"sequence": "TAAATA", "binding signal": 1.36}
{"sequence": "CACTAA", "binding signal": 1.2}
{"sequence": "TAATCT", "binding signal": 1.34}
{"sequence": "TACTAG", "binding signal": 1.17}
{"sequence": "TCGATT", "binding signal": 1.04}
{"sequence": "CTCTGT", "binding signal": 1.39}
{"sequence": "TTAAAG", "binding signal": 1.12}
{"sequence": "ATACTA", "binding signal": 1.14}
{"sequence": "AATGAT", "binding signal": 1.21}
{"sequence": "TGCGAT", "binding signal": 1.17}
{"sequence": "ATCCCC", "binding signal": 1.39}
{"sequence": "GCTCTG", "binding signal": 1}
{"sequence": "TTTGAA", "binding signal": 1.38}
{"sequence": "TTCTCG", "binding signal": 1.4}
{"sequence": "CATCCC", "binding signal": 1.15}
{"sequence": "CATATA", "binding signal": 1.17}
{"sequence": "TATAGT", "binding signal": 1.12}
